Article PMC7683387
Results are given in words; binding and its absence hold for the method and conditions named.

Chains of the proteins cited; added tags and fusions are not shown. Residues count along the entry.
UniProt P27918, residues 28-469: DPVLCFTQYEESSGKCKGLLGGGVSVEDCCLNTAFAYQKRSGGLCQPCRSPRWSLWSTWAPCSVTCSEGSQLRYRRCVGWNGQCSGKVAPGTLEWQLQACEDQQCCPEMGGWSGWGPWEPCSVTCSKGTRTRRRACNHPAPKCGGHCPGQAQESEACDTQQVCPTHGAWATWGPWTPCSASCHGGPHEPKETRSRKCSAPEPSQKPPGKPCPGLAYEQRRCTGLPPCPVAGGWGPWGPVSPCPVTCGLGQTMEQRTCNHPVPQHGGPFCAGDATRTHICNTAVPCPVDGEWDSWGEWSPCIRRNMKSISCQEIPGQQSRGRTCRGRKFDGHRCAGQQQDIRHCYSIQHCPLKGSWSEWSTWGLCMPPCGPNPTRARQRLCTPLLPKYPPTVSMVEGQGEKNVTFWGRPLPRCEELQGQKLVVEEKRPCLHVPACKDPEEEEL

Target: T1, LipL32 (L. interrogans serovar Copenhageni 10A) (UniProt Q72SM7)
T1 sequence: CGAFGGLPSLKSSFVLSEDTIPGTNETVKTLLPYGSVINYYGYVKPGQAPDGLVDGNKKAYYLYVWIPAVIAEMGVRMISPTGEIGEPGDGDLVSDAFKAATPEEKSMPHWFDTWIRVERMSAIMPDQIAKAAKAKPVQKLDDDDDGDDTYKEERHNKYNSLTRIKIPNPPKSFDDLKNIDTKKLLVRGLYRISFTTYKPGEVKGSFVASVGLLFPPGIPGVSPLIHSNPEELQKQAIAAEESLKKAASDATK
Test: ELISA; 1 µg of each recombinant leptospiral protein immobilised on ELISA plate wells, incubated with 0.5 µg of properdin (unfractionated or oligomer); detected with goat polyclonal anti-human properdin and peroxidase-conjugated anti-goat IgG, OPD, absorbance 492 nm; basal values with PBS subtracted; both purified

unfractionated commercial purified human properdin (from UniProt P27918 28-469)
binding: no binding (tested: 0.5 µg of properdin)
